# Data as given in the supplement of paper PMC12067093, “Discovery and optimisation of a covalent ligand for TRIM25 and its application to targeted protein ubiquitination” (Chemical Science, 2025).
# The list shows a part of the results.
# Compound: CC1Cc2ccccc2N1C(=O)C1CCCN(C1)C(=O)CCl (mixture of isomers) [TRIM25 ligand 11 (diastereomer mixture)]
# Assay: probe-labelled cysteine peptide fold change vs DMSO (competition) (log2 fold change); higher = less target engagement (more negative = stronger competition)
# Conditions: 10 µM; THP-1; incubation time: 4 h
# 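Note: competitive chemoproteomic profiling in live THP-1 cells with an iodoacetamide desthiobiotin (IA-DTB) probe, comparing probe-labelled peptide intensities in compound-treated cells against DMSO-treated controls.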
row,Target,probe-labelled cysteine peptide fold change
1,NAMPT_P43490_397_DLLNCSFK (UniProt P43490),0.0749
2,NAPA_P54920_103_KADPQEAINCLMR (UniProt P54920),0.0661
3,NAPRT_Q6XQN6_484_LCLQQGQLCEPLPSLAESR (UniProt Q6XQN6),0.0215
4,MYOF_Q9NZM1_1167_DSFSDPYAHICFLHR (UniProt Q9NZM1),0.214
5,MYO1G_B0I1T2_472_GILAVLDEACSSAGTITDR (UniProt B0I1T2),0.0341
6,MYO9B_Q13459_863_KELCFDDELVLQQLR (UniProt Q13459),0.0766
7,NCAPD2_Q15021_772_CSSVMLLGMMAR (UniProt Q15021),-0.0895
8,NCAPG2_Q86XI2_285_ILEAIENDCIQDFMFHGIHLPR (UniProt Q86XI2),-0.097
9,MYO9B_Q13459_34_EQAAYHLHIYPQLSTTESQASCR (UniProt Q13459),0.244
10,NBAS_A2RRP1_1634_QLHCYNER (UniProt A2RRP1),0.000992
11,NARS_O43776_511_KYGTCPHGGYGLGLER (UniProt O43776),-0.29
12,MYO1G_B0I1T2_979_VSDCIPLSHR (UniProt B0I1T2),0.132
13,NAT10_Q9H0A0_517_DTLFCYHK (UniProt Q9H0A0),0.143
14,NAA15_Q9BXJ9_817_NLQTCMEVLEALYDGSLGDCK (UniProt Q9BXJ9),-0.0826
15,NAT10_Q9H0A0_105_YCYYNETHK (UniProt Q9H0A0),0.0185
16,MYH9_P35579_917_QELEEICHDLEAR (UniProt P35579),0.0485
17,NAT1_P18440_44_AVPFENLNIHCGDAMDLGLEAIFDQVVRR (UniProt P18440),-0.252
18,NAT10_Q9H0A0_746_QTPNDLTGEHSCIMLK (UniProt Q9H0A0),-0.0505
19,MYO18A_Q92614_508_TTSCQHLVQYLATIAGISGNK (UniProt Q92614),0.0219
20,MYH9_P35579_917_KQELEEICHDLEARVEEEEER (UniProt P35579),-0.38

row,Target,probe-labelled cysteine peptide fold change
1,NAXE_Q8NCW5_115_SPPTVLVICGPGNNGGDGLVCAR (UniProt Q8NCW5),-0.249
2,NAA38_Q9BRA0_17_EENGCCSR (UniProt Q9BRA0),-0.0185
3,NAPA_P54920_66_NWSAAGNAFCQAAQLHLQLQSK (UniProt P54920),-0.028
4,NARS_O43776_342_HLAEYTHVEAECPFLTFDDLLNR (UniProt O43776),0.547
5,MYH9_P35579_896_LQLQEQLQAETELCAEAEELRAR (UniProt P35579),-0.566
6,NASP_P49321_708_KPTDGASSSNCVTDISHLVR (UniProt P49321),0.0324
7,NAA15_Q9BXJ9_238_GELLLQLCR (UniProt Q9BXJ9),0.167
8,NAGA_P17050_38+42_CNINCDEDPK (UniProt P17050),0.0557
9,MYSM1_Q5VVJ2_360_NLNDNEMLFHSCQMVEESHEEEELKPPEQEIEIDR (UniProt Q5VVJ2),-0.0444
10,MYO1F_O00160_101+105_NMLIDCENQCVIISGESGAGK (UniProt O00160),0.288
11,MYO9B_Q13459_1665_ALLCSVCK (UniProt Q13459),0.197
12,NAP1L1_P55209_388_DQNPAECK (UniProt P55209),0.0469
13,NAA16_Q6N069_82_SHVCWHVYGLLQR (UniProt Q6N069),-0.208
14,NCAM2_O15394_136_QGEDAEVVCR (UniProt O15394),-0.111
15,NAA15_Q9BXJ9_238_LAVEETKGELLLQLCR (UniProt Q9BXJ9),-0.344
16,NCAPD3_P42695_867_YIFTLGDIAQLCPAR (UniProt P42695),0.0327
17,MYO18A_Q92614_1699_NQLEESEFTCAAAVK (UniProt Q92614),-0.207
18,MYO1G_B0I1T2_655_MTCEYTWPNHLLGSDK (UniProt B0I1T2),0.178
19,NCAM1_P13591_829_GPVEAKPECQETETK (UniProt P13591),0.112
20,MYO6_Q9UM54_1110_DTINTSCDIELLAACR (UniProt Q9UM54),0.0165

# Same assay, conditions: 50 µM; THP-1; incubation time: 4 h
row,Target,probe-labelled cysteine peptide fold change
1,NAMPT_P43490_397_DLLNCSFK (UniProt P43490),0.0963
2,NAPA_P54920_103_KADPQEAINCLMR (UniProt P54920),0.0556
3,NAPRT_Q6XQN6_484_LCLQQGQLCEPLPSLAESR (UniProt Q6XQN6),0.0105
4,MYOF_Q9NZM1_1167_DSFSDPYAHICFLHR (UniProt Q9NZM1),0.0534
5,MYO1G_B0I1T2_472_GILAVLDEACSSAGTITDR (UniProt B0I1T2),0.0614
6,MYO9B_Q13459_863_KELCFDDELVLQQLR (UniProt Q13459),-0.00694
7,NCAPD2_Q15021_772_CSSVMLLGMMAR (UniProt Q15021),0.0532
8,NCAPG2_Q86XI2_285_ILEAIENDCIQDFMFHGIHLPR (UniProt Q86XI2),0.0245
9,MYO9B_Q13459_34_EQAAYHLHIYPQLSTTESQASCR (UniProt Q13459),0.35
10,NBAS_A2RRP1_1634_QLHCYNER (UniProt A2RRP1),-0.0554
11,NARS_O43776_511_KYGTCPHGGYGLGLER (UniProt O43776),-0.0416
12,MYO1G_B0I1T2_979_VSDCIPLSHR (UniProt B0I1T2),0.122
13,NAT10_Q9H0A0_517_DTLFCYHK (UniProt Q9H0A0),0.232
14,NAA15_Q9BXJ9_817_NLQTCMEVLEALYDGSLGDCK (UniProt Q9BXJ9),-0.0271
15,NAT10_Q9H0A0_105_YCYYNETHK (UniProt Q9H0A0),0.0915
16,MYH9_P35579_917_QELEEICHDLEAR (UniProt P35579),0.055
17,NAT1_P18440_44_AVPFENLNIHCGDAMDLGLEAIFDQVVRR (UniProt P18440),-0.236
18,NAT10_Q9H0A0_746_QTPNDLTGEHSCIMLK (UniProt Q9H0A0),-0.047
19,MYO18A_Q92614_508_TTSCQHLVQYLATIAGISGNK (UniProt Q92614),0.0521
20,MYH9_P35579_917_KQELEEICHDLEARVEEEEER (UniProt P35579),-0.158

row,Target,probe-labelled cysteine peptide fold change
1,NAXE_Q8NCW5_115_SPPTVLVICGPGNNGGDGLVCAR (UniProt Q8NCW5),-0.139
2,NAA38_Q9BRA0_17_EENGCCSR (UniProt Q9BRA0),-0.193
3,NAPA_P54920_66_NWSAAGNAFCQAAQLHLQLQSK (UniProt P54920),-0.0975
4,NARS_O43776_342_HLAEYTHVEAECPFLTFDDLLNR (UniProt O43776),0.432
5,MYH9_P35579_896_LQLQEQLQAETELCAEAEELRAR (UniProt P35579),-0.0747
6,NASP_P49321_708_KPTDGASSSNCVTDISHLVR (UniProt P49321),-0.0746
7,NAA15_Q9BXJ9_238_GELLLQLCR (UniProt Q9BXJ9),0.152
8,NAGA_P17050_38+42_CNINCDEDPK (UniProt P17050),0.172
9,MYSM1_Q5VVJ2_360_NLNDNEMLFHSCQMVEESHEEEELKPPEQEIEIDR (UniProt Q5VVJ2),-0.244
10,MYO1F_O00160_101+105_NMLIDCENQCVIISGESGAGK (UniProt O00160),0.0713
11,MYO9B_Q13459_1665_ALLCSVCK (UniProt Q13459),0.174
12,NAP1L1_P55209_388_DQNPAECK (UniProt P55209),0.435
13,NAA16_Q6N069_82_SHVCWHVYGLLQR (UniProt Q6N069),0.0504
14,NCAM2_O15394_136_QGEDAEVVCR (UniProt O15394),-0.169
15,NAA15_Q9BXJ9_238_LAVEETKGELLLQLCR (UniProt Q9BXJ9),-0.292
16,NCAPD3_P42695_867_YIFTLGDIAQLCPAR (UniProt P42695),0.0499
17,MYO18A_Q92614_1699_NQLEESEFTCAAAVK (UniProt Q92614),-0.111
18,MYO1G_B0I1T2_655_MTCEYTWPNHLLGSDK (UniProt B0I1T2),0.205
19,NCAM1_P13591_829_GPVEAKPECQETETK (UniProt P13591),0.319
20,MYO6_Q9UM54_1110_DTINTSCDIELLAACR (UniProt Q9UM54),0.113
